# At least one compound was matched to its structure with a doubt left.
# Molecular target: T1, Kv7.2/7.3 (Homo sapiens, UniProt O43525+O43526)
# T1 construct: host or cells: HEK cells, tetracycline-inducible expression
# Assay: Kv7.2/7.3 activation assay, QPatch planar patch-clamp, single concentration screen
# Format: cell-based
# Parameters: key: <1.2-fold increase over baseline (−); +/−: as a range from <1.2-fold increase over baseline (−) up to >6-fold increase over baseline (+++); as a range from <1.2-fold increase over baseline (−) up to >6-fold increase over baseline (+++); as a range from <1.2-fold increase over baseline (−) up to >6-fold increase over baseline (+++); >6-fold increase over baseline (+++)
# Conditions: Kv7.2/Kv7.3 co-expressing HEK cells, compound 3 μM, steady-state current at end of 2 s pulse to −30 mV
# Experimental: The ability of compounds to potentiate K-currents in Kv7.2/7.3 containing HEK cells was assessed using planar patch-clamp on the QPatch automated screening platform.
# Cell Line: The hKv7.2/7.3 cell line was obtained from Chantest (Cleveland, OH 44128) cat. #CT6147. These HEK cells will express the Kv7.2/7.3 ion channels when induced.
# Cell Culture: Cells were maintained in a media containing DMEM/F12; 50/50 (GIBCO cat. #11330), 10% Fetal Bovine Serum (FBS) (GIBCO cat. #26140), 100 units/mL Penicillin-Streptomycin (GIBCO cat. #15140), 0.005 mg/mL Blasticidin (INVIVOGEN cat. #ant-bl-1), 0.5 mg/mL Geneticin (GIBCO cat. #10131), 0.1 mg/ml Zeocin (GIBCO cat. #R25001). Cells used in the electrophysiology assay were maintained in a media without Blasticidin, Geneticin and Zeocin for 2 days and channel expression was induced by adding tetracycline (BIOLINE cat. #BIO-87030) at a final concentration of 1 mg/mL. Cells were grown in T-175 flask to ˜75% confluency. Currents were recorded 24 hours after channel induction.
# Compound Plates: Test compounds were prepared by performing serial dilutions on a Biomek NX^P (BECKMAN COULTER). Final dilutions were made in external recording solution with a final DMSO concentration of 0.1% DMSO. For single concentration screens each plate had 10 μM retigabine as a positive control and 0.1% DMSO as a negative control.
# Electrophysiology: On the day of the experiment cells were washed with Hank's Balanced Salt Solution (HBBS) (GIBCO cat. #14175) and harvested with Tryple (GIBCO cat. #12604). Cells were then centrifuged at 2000 rpm for 5 minutes and resuspended in CHO-S-SFM (GIBCO cat. #12052) at ˜3×10^6 cells/mL. Cells were stirred for 30 minutes before experiments were started. External recording solution contained (in mM): NaCl (145), KCl (4), CaCl2 (2), MgCl2 (1), HEPES (10) and Glucose (10); pH was adjusted to 7.4 with NaOH and the osmolarity was adjusted to 300-305 mOsM with sucrose if necessary. Internal solution contained (in mM): KCl (125), KF (10), EGTA (5), Na2ATP (5), MgCl2 (3.2), HEPES (5); pH was adjusted to 7.2 with KOH and the osmolarity was adjusted to 298-302 mOsM with sucrose.
# Potassium channel activity was measured on the QPatch HTX (Sophion Bioscience) using QPlates with 48-wells/plate. Each cell was taken as an independent experiment and only one compound was tested per well. Potassium channel activity was elicited by holding at −80 mV and stepping to −30 mV for 2 s followed by a 100 ms pulse to −120 mV.
# Single concentration screen: Baseline conditions were obtained by recording 5 sweeps in the external solution only, this was repeated for three applications of the external solution. […] The steady-state current at the end of the 2 s pulse to −30 mV was measured to determine the fold increase from baseline.
row,SMILES,Kv7.2/7.3 Activity: increase in current over baseline
1,"C[C@@](O)(C(=O)Nc1nc2ccc(C(F)(F)F)cc2n1C1CCC1)C(F)(F)F [Example 43, (R)-N-(1-cyclobutyl-6-(trifluoromethyl)-1H-benzo[d]imidazol-2-yl)-3,3,3-trifluoro-2-hydroxy-2-methylpropanamide]",+/−
2,"O=C(CC1CC(F)(F)C1)Nc1nc2ccc(Cl)cc2n1C1CCC1 [Example 61, N-(6-chloro-1-cyclobutyl-1H-benzo[d]imidazol-2-yl)-2-(3,3-difluorocyclobutyl)acetamide]",+
3,"CC(C)(C)n1c(NC(=O)C[C@@](C)(O)c2ccccc2)nc2ccc(C#N)cc21 [Example 91, (R)-N-(1-(tert-butyl)-6-cyano-1H-benzo[d]imidazol-2-yl)-3-hydroxy-3-phenylbutanamide]",+/−

# More lines, now with the values ahead:
row,Kv7.2/7.3 Activity: increase in current over baseline,SMILES
1,+,"CC(C)(C)n1c(NC(=O)C[C@](C)(O)c2ccccc2)nc2ccc(C#N)cc21 [Example 92, (S)-N-(1-(tert-butyl)-6-cyano-1H-benzo[d]imidazol-2-yl)-3-hydroxy-3-phenylbutanamide]"
2,+,"CC(C)(C)n1c(NC(=O)C[C@](C)(O)C(F)(F)F)nc2ccc(C#N)cc21 [Example 93, (S)-N-(1-(tert-butyl)-6-cyano-1H-benzo[d]imidazol-2-yl)-4,4,4-trifluoro-3-hydroxy-3-methylbutanamide]"
3,+/−,"CC(C)(C)n1c(NC(=O)C[C@@](C)(O)C(F)(F)F)nc2ccc(C#N)cc21 [Example 94, (R)-N-(1-(tert-butyl)-6-cyano-1H-benzo[d]imidazol-2-yl)-4,4,4-trifluoro-3-hydroxy-3-methylbutanamide]"

# From US12351559B2 (Biohaven Therapeutics Ltd., priority 2014, dated 2025)
